We go through 42 sequences from publication PMC7819943, “Rice protein-binding microarrays: a tool to detect cis-acting elements near promoter regions in rice”.

Some of the results follow.

This test deals with T1, OsSMF1 (Oryza sativa, UniProt Q6ZLB0 1-436).
T1 sequence: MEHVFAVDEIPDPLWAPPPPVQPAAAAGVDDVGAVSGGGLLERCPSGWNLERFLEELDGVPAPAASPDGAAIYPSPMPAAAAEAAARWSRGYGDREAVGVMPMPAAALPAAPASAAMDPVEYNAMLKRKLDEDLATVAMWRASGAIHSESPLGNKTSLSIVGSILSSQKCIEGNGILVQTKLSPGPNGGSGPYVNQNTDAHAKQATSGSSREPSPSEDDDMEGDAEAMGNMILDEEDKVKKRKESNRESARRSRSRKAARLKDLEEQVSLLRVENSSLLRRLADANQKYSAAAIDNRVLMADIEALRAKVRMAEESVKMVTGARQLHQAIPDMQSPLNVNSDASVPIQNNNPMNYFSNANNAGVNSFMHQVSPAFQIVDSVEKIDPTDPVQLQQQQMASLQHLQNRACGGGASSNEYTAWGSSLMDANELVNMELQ
Briefly: protein-binding microarray (RPBM); PBS, 2% BSA, 51.3 ng/ul salmon testes DNA, 50 uM zinc acetate, 200 nM TF, 25 C, 1 h; high values mean tight binding. As to conditions: protein: recombinant; tags: N-terminal polyhistidine and DsRed monomer fusion (pET32a); chain copies: 2; label: CyDye5-dUTP incorporated in the synthesized complementary strand; 3' TTTTT single-stranded linker to array surface; dsDNA, one strand shown. An outline of the steps: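 Ni–NTA purification followed expression in E. coli BL21-CodonPlus of transcription factors fused N-terminally to a polyhistidine tag and DsRed. At 200 nM in PBS with 2% BSA, salmon testes DNA and 50 µM zinc acetate, the protein was incubated for 1 h at 25 °C with a custom Agilent array that had been primer-extended with Cy5-dUTP and blocked with 2% BSA. After washing, the array was read on an Axon 4000B scanner. The binding signal is per-feature fluorescence intensity in arbitrary units.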
On to “ATTTAGGTGACGTGCACGAAAGAGATGATTTCACTTTCCCCGGAGTCACCTAGTGCAG”, for which the binding signal was 5270 fluorescence intensity (a.u.). With “ATTCGTTTCGTATTTATGCCCGATATTATCCGTGCTTCTACGGAGTCACCTAGTGCAG” the figure was 3320 fluorescence intensity (a.u.). Consider “ACCGGCCATTAATCATCACGCGGCGGCTATGGTTAAGGTTCGGAGTCACCTAGTGCAG”, for which the binding signal is 3510 fluorescence intensity (a.u.). Then “CCATCTCTCCCAAGCTTCTTCCTTCTAATCCTTGCTGACACGGAGTCACCTAGTGCAG”, with 3930 fluorescence intensity (a.u.); and “CGCCTCGTCGGCGTTGCCCTCAGGCCATTCAAATGCAAGCCGGAGTCACCTAGTGCAG”, with 4690 fluorescence intensity (a.u.). Then “CAACGGTAAACAAGCACACATCCACACAACGGCAATTAATCGGAGTCACCTAGTGCAG”, with 3340 fluorescence intensity (a.u.); and “GAGATAAGCATTGGAGCGTGATGATGTGGTGGACCATCAACGGAGTCACCTAGTGCAG”, with 6160 fluorescence intensity (a.u.). With “GACAACATAAACGCGCTGACGTGGCACTTCCCGTCGCAGTCGGAGTCACCTAGTGCAG” the figure was 36600 fluorescence intensity (a.u.). On to “AATACCGACGTGTCTAGACCTCAGCGACACACTGGAGCGTCGGAGTCACCTAGTGCAG”, for which the binding signal was 5000 fluorescence intensity (a.u.). Take “TTTCCTTTGCTAGCTTACTTAGCTGGCAAAGCTTAATCTACGGAGTCACCTAGTGCAG”: the binding signal is 3300 fluorescence intensity (a.u.).

On to “TGTTGATTCCATCCTTGTGGATCGTCAGCATCTTATTCTACGGAGTCACCTAGTGCAG”, for which the binding signal is 3630 fluorescence intensity (a.u.). Then “TCCTTGATTTCTCCCCTCTCTCTGTCATTTCTCTCTTCCTCGGAGTCACCTAGTGCAG”, with 3270 fluorescence intensity (a.u.). With “GCTCCTTCCGATGCGGGGCCCACGTGCCCAGGAATCCGAGCGGAGTCACCTAGTGCAG” the figure was 3720 fluorescence intensity (a.u.); with “CCATCCCACTTCGACGGAGCCCACGGCGTCAGCTCCCGTACGGAGTCACCTAGTGCAG”, 3710 fluorescence intensity (a.u.). Then “GAAGCCGGCGGGGAGGTGGAAAGCCGCCGCCGCCGCCGCCCGGAGTCACCTAGTGCAG”, with 26400 fluorescence intensity (a.u.); and “CACTGATTTGGTGGCTGACATGTGGACCTGAGAGTTGTGTCGGAGTCACCTAGTGCAG”, with 5010 fluorescence intensity (a.u.); and “CGACCGAGCGAATTCAGTGAGCTGCATGCGTGGCGTGCGTCGGAGTCACCTAGTGCAG”, with 5290 fluorescence intensity (a.u.). Regarding “ATTTGGAGATGATGAAGCCGTAATAAACCGAGCGACTTACCGGAGTCACCTAGTGCAG”, the binding signal was 25700 fluorescence intensity (a.u.).

As for “TGCAACACTAAACACATGGGCCCACATGTCAGTCTGCCGCCGGAGTCACCTAGTGCAG”, the binding signal was 3500 fluorescence intensity (a.u.). For the sequence “AGCCCACTTGTGTCCTGCCACGTGTGTTATATCCTGAATACGGAGTCACCTAGTGCAG”, the binding signal is 12700 fluorescence intensity (a.u.). With “ATCCCACTACACGGCCACAAATTGACCGGTGAGGATTGTACGGAGTCACCTAGTGCAG” the figure was 34900 fluorescence intensity (a.u.); with “GGCTCGCCGTGATCGGGAGCAGCCACGCCAGCTACGACATCGGAGTCACCTAGTGCAG”, 4460 fluorescence intensity (a.u.). Then “AGGCTTCAAGCTGGCCACTCTAGTCACCATGGCGTCACTCCGGAGTCACCTAGTGCAG”, with 9760 fluorescence intensity (a.u.); and “GCCTCGTGGTGACGTAACCGTTGACACGTAGGCGGCGGCTCGGAGTCACCTAGTGCAG”, with 33500 fluorescence intensity (a.u.).

Consider “TAGATGGGCCTGAAAGTTGTTGTGTGGCCTGAAAGTTGCGCGGAGTCACCTAGTGCAG”, for which the binding signal was 3140 fluorescence intensity (a.u.). “TAGGAGAAAATCATGACTCATTTGCAGCAGATCATGCCTCCGGAGTCACCTAGTGCAG”: the binding signal was 7570 fluorescence intensity (a.u.).

As for “CCGTCCAACTTGAATCCAACGCCTAGATCTCCACTCCCACCGGAGTCACCTAGTGCAG”, the binding signal is 23100 fluorescence intensity (a.u.).

For the sequence “GAAGAGGGGAGTAGTGAGGATGACAGGTGGGGCCACGTGGCGGAGTCACCTAGTGCAG”, the binding signal is 14300 fluorescence intensity (a.u.).

Take “TCCCGCTTTGACCCGCCTCCGTGTCACTCACTCCCGCCCGCGGAGTCACCTAGTGCAG”: the binding signal was 9370 fluorescence intensity (a.u.). With “CCAGAACGCCACCCCGGCCGCGCGCCGCGCACGTCACTCGCGGAGTCACCTAGTGCAG” the figure was 7300 fluorescence intensity (a.u.).

As for “ATCCGATGTGACACGCCAAAATTTTACAAAACTACGTCTACGGAGTCACCTAGTGCAG”, the binding signal was 3140 fluorescence intensity (a.u.).

On to “CGTGTTCTCGTCGTTGCTGGCATTCGACGTGTCAACGTGGCGGAGTCACCTAGTGCAG”, for which the binding signal is 6530 fluorescence intensity (a.u.). For the sequence “GGCGACGCCATCTGCTTCACCTCCGGCAACTTGCTACCACCGGAGTCACCTAGTGCAG”, the binding signal is 32800 fluorescence intensity (a.u.). With “CTCACACTACACCCACTCATCCACAGCGATCAACCGCATTCGGAGTCACCTAGTGCAG” the figure was 3210 fluorescence intensity (a.u.); with “TCTCTCCCTGGAGGCATGACGCGGCGGCGCCCGTGGCCGTCGGAGTCACCTAGTGCAG”, 10100 fluorescence intensity (a.u.).

For the sequence “CTCAACTTGTCATCGAGTTACAAAATCATCCTCGAACTGCCGGAGTCACCTAGTGCAG”, the binding signal was 3260 fluorescence intensity (a.u.). On to “AAGTCACCACAATGACACAATGCCACCACAGCAAAGTCCTCGGAGTCACCTAGTGCAG”, for which the binding signal is 6580 fluorescence intensity (a.u.). Take “CATGCCAATCGCGAAGCCCTACAAGCCGGGTTGTCATATGCGGAGTCACCTAGTGCAG”: the binding signal was 31600 fluorescence intensity (a.u.). Then “CCCCATCTTCCGGCTGATGAATGCAGATGTCATCTCATCTCGGAGTCACCTAGTGCAG”, with 4190 fluorescence intensity (a.u.); and “GGGAGGTGTGGTGATCGATCGCCATGCGCGGATTTTCTAACGGAGTCACCTAGTGCAG”, with 5590 fluorescence intensity (a.u.). As for “GCTCCCTCAGCCGTGGCACGTGTTCACAAGCCGTGACCAGCGGAGTCACCTAGTGCAG”, the binding signal is 4570 fluorescence intensity (a.u.). Then “GCGTACTGCGTGCGTGCGCTTCATTTCGTTTCGTTGGGCCCGGAGTCACCTAGTGCAG”, with 3300 fluorescence intensity (a.u.).
